Laboratory results reported in PubChem BioAssay AID2685 (National Center for Advancing Translational Sciences (NCATS), 2010).
Hit rate of the full screen: of about 320,000 compounds, about 2,100 (0.66%) were called active. This list was built around the results that the source calls inconclusive (neither active nor inactive); the mix of calls is not that of the screen. The call rests on the fitted dose curve; in most records, active means well fitted inhibition curve with a large enough effect in the signal ratio, with a control signal flat (not every such curve was filed as active); inconclusive means small, poorly fitted or top-dose-only effect, or effect the other way, or a change in a side signal; inactive means flat fitted curve, though single readings scatter; the % refers to the signal ratio. Potencies beside an inconclusive call are fits to weak or partial responses and may not hold up.

Test: qHTS Assay for Lipid Storage Modulators in Drosophila S3 Cells
Settings: BODIPY lipid droplet fluorescence, 18-24 h, cells fed with added oleic acid; lipid storage change, negative = inhibition: at 46.1 µM (top of the series) unless noted
In short: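 Drosophila S3 cells loaded with oleic acid (400 uM, as added) and compounds at several concentrations; lipid droplets imaged by 488-nm laser-scanning cytometry, 500–530 nm intensity and object ratio to cell channel. Percent activity normalized to 20 uM Triacsin C.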
On the % scale 0 is the no-effect control and ±100 the full control effect; potency means the concentration at half of the fitted maximal effect.

SMILES	lipid storage change, negative = inhibition	Potency
COc1ccccc1CCNC(=O)C(=O)NCC1OCCN1S(=O)(=O)c1ccccc1 (centres undefined)	inconclusive: -16.8%	–
COc1ccc(N2CCN(C(=O)CSc3nnc4c(C)cc5ccccc5n34)CC2)cc1	–	inconclusive: 6.51 µM [rising, partial curve, poor fit]
COc1ccc(-c2cc3c(nn2)-c2ccccc2C3=O)cc1	inconclusive: -5.47%	–
COc1ccc(NC(=O)CN2C(=O)c3ccccc3S2(=O)=O)cc1S(=O)(=O)N1CCOCC1	–	inconclusive: 6.51 µM [falling, single point]
COc1ccc(N=C2NN=C(c3ccc4c(c3)OCCO4)CS2)cc1	inconclusive: -0.781%	–
COc1ccccc1N(CC(O)Cn1ccnc1C)S(=O)(=O)c1ccc(C)cc1 (centres undefined)	inconclusive: -23.7%	–
CCOC(=O)C1=C(c2ccccc2)NC(=O)NC1c1ccc(O)c(Cl)c1 (centres undefined)	inconclusive: 49.9%	–
CCOC(=O)COn1c(=O)c(-c2ccc(C)cc2)[n+]([O-])c2ccccc21	inconclusive: -2.19%	–
CC1(C#N)c2ccccc2C(Br)=CN1C(=O)c1ccccc1 (centres undefined)	inconclusive: 8.07%	–
CCOC(=O)[C@@H]1[C@H]2COc3ccccc3[C@H]2N2C(=O)N(c3ccccc3)C(=O)[C@]12C	inconclusive: 50.8%	–
COc1ccc(C2(O)CC3CCC(C2)N3c2cc(C)nc(-c3ccccc3)n2)cc1 (centres undefined)	inconclusive: -9.53%	–
COc1ccccc1Nc1nc(N)nc(CSC(=S)N2CCN(c3ccccc3)CC2)n1	inconclusive: 25.2%	–
CCOc1ccccc1CNC(c1ccccc1)c1ccccc1	–	inconclusive: 7.31 µM [activator, partial curve]
COCC(=O)Nc1cc(=O)n(C)c(=O)n1C	inactive	–
CC1=NN=C(c2ccccc2)C(c2c[nH]c3ccccc23)N1O (centres undefined)	inconclusive: 18.4%	–
N#Cc1nc(Cc2cccc3ccccc23)oc1NCc1ccco1	–	inconclusive: 0.13 µM [activator, full curve, poor fit]
COc1ccccc1NC(=O)C1=C(C)NC(=O)NC1c1cccc(OC)c1OC (centres undefined)	inconclusive: -26.7%	–
CN(C(=O)/C=C/c1ccccc1)C1CCS(=O)(=O)C1 (centres undefined)	inconclusive: 7.58%	–
O=S(=O)(c1cccc(-c2cn3cc(Cl)ccc3n2)c1)N1CCOCC1	inconclusive: 81.2%	–
COC(=O)c1cc(C(=O)NCc2ccccc2)c(=O)[nH]c1C	inconclusive: -111%	–
CCN(CC(=O)Nc1cc(Cl)ccc1C)C(=O)C1CC1	–	inconclusive: 29.1 µM [activator, single point]
CC(=O)Nc1ccc(NC(=O)C2CCCN(S(=O)(=O)c3ccc(-n4cnnn4)cc3)C2)cc1 (centres undefined)	–	inconclusive: 0.651 µM [activator, full curve]
O=C(O)c1ccc(NC(=O)c2ccccc2NC(=O)c2cccc(Br)c2)cc1	–	inconclusive: 29.1 µM [activator, single point]
Cc1ccsc1/C=N/NC(=O)c1nnn(-c2nonc2N)c1CSc1ccccc1	–	inconclusive: 20.6 µM [falling, single point]
CC1=C[C@H]2Cc3cc(C)cc(C)c3S(=O)(=O)[C@@H]2C=C1	inconclusive: -9.11%	–

An excerpt of these results, as labelled records.
COc1ccc(NC(=O)CN2C(=O)c3ccccc3S2(=O)=O)cc1S(=O)(=O)N1CCOCC1
  Potency: inconclusive: 6.51 µM [falling, single point]
CC1=NN=C(c2ccccc2)C(c2c[nH]c3ccccc23)N1O (centres undefined)
  lipid storage change, negative = inhibition: inconclusive: 18.4%

Next compounds.

SMILES	lipid storage change, negative = inhibition	Potency
CC1CCN(CCOCCOc2ccc(Br)cc2Cl)CC1	–	inconclusive: 0.0052 µM [falling, full curve, poor fit]
COc1cc(C(=O)NNC(=O)c2ccoc2C)cc(OC)c1OC	–	inconclusive: 0.116 µM [falling, full curve, poor fit]
CN(c1ccc(C(=O)NCC2CCCO2)cc1)S(=O)(=O)c1ccccc1 (centres undefined)	inconclusive: 35%	–
CCOc1cc(NC(=O)C2CC2)c(OCC)cc1NC(=O)c1ccccn1	–	inconclusive: 0.092 µM [activator, single point]
Cn1nc(CC(=O)Nc2ccc3c(c2)CCC3)c2ccccc2c1=O	inconclusive: 26.6%	–
Cc1ccc(C(C(=O)Nc2ccc3c(c2)OCO3)N(C)C(=O)/C=C\c2ccc3c(c2)OCO3)cc1 (centres undefined)	inconclusive: 25.2%	–
CCN(CC(=O)Nc1ccc(NC(C)=O)cc1)C(=O)Cc1c(Cl)cccc1Cl	inconclusive: 36.4%	–
O=C(NCc1ccncc1)c1ccc(N2CCCC2)c([N+](=O)[O-])c1	–	inconclusive: 29.1 µM [falling, single point]
CC(C)NC(=S)Nc1cccc2cnccc12	–	inconclusive: 16.4 µM [activator, single point]
Cc1nc2ccc(S(=O)(=O)NCC(=O)N3CCCC(C)C3)cc2s1 (centres undefined)	inconclusive: 26.7%	–
O=C(OCC(=O)N1CCN(C(=O)c2ccco2)CC1)c1cc(-c2ccco2)nc2ccccc12	inconclusive: 24.7%	–
CC(=O)Nc1nonc1-c1nc2ccccc2n1CCC(C)C	inconclusive: 22.9%	–
COc1ccc(-c2noc(N3CCC(C(=O)Nc4ccccc4Cl)CC3)n2)cc1	–	inconclusive: 0.0731 µM [activator, partial curve, poor fit]
N#Cc1ccccc1OCC(=O)OCC(=O)NC1CCS(=O)(=O)C1 (centres undefined)	–	inconclusive: 3.66 µM [activator, single point]
COc1ccc(CCNCC(O)COc2ccc(OC)cc2C(C)(C)C)cc1 (centres undefined)	inconclusive: -100%	–
O=C(Nc1ccc(NC(=O)c2cccs2)cc1)c1ccc2c(c1)OCO2	inconclusive: -3.33%	–
NS(=O)(=O)c1ccc(CCNC(=O)Nc2ccc(Cl)cc2)cc1	–	inconclusive: 0.13 µM [activator, full curve, poor fit]
CCOCCCNC(=O)CCc1ccc(S(=O)(=O)Nc2ccc(C)cc2)cc1	inconclusive: 20.8%	–
COc1ccc(NC(=O)c2ccccc2)cc1NS(=O)(=O)c1ccc(F)cc1	inconclusive: 21.6%	–
O=C1C(Cl)=C(N2CCOCC2)C(=O)N1c1ccccc1	–	inconclusive: 3.66 µM [falling, full curve, poor fit]
Cn1c(=O)c2sccc2n2c(CCCC(=O)N3CCCCC3)nnc12	–	active: 10.3 µM
O=C(Nc1cccc(C(F)(F)F)c1)c1cccnc1NCCO	–	active: 9.2 µM
CCOc1ccc(C(=O)Nc2ccccc2NC(C)=O)cc1OCC	inconclusive: 36.9%	–
COc1ccc(C(=O)NC(=S)NNC(=O)c2c(-c3ccccc3)noc2C)cc1	inconclusive: -94.6%	–
O=c1c(-c2nc3ccccc3s2)cccn1Cc1ccc(Cl)c(Cl)c1	inconclusive: 13.6%	–

A second format for part of the listing above:
SMILES | lipid storage change, negative = inhibition | Potency
CCOc1ccc(C(=O)Nc2ccccc2NC(C)=O)cc1OCC | inconclusive: 36.9% | –
COc1ccc(C(=O)NC(=S)NNC(=O)c2c(-c3ccccc3)noc2C)cc1 | inconclusive: -94.6% | –

Next part:

SMILES	lipid storage change, negative = inhibition	Potency
O=C(CSc1ncccn1)Nc1cccc2ccccc12	–	inconclusive: 5.17 µM [activator, full curve]
Fc1cccc(NC(=S)N2CCN(c3ccccn3)CC2)c1	–	inconclusive: 0.517 µM [activator, full curve, poor fit]
CCOC(=O)C1CCCN(C(=O)c2ccc3c(=O)n(Cc4ccccc4OC)c(=S)[nH]c3c2)C1 (centres undefined)	–	inconclusive: 2.31 µM [rising, partial curve]
COc1ccc(C)cc1NC(=O)c1nn(-c2ccccc2)cc1OC	inconclusive: -100%	–
CC(C)c1nnc(NC(=O)c2nc(S(=O)(=O)Cc3ccccc3F)ncc2Cl)s1	–	active: 1.64 µM
N#Cc1c(NC(=O)C2CC(c3ccccc3Cl)=NO2)sc2c1CCC2 (centres undefined)	inconclusive: 41.7%	–
O=C(c1ccc(Br)o1)N1CCN=C1SCc1cccc(F)c1	–	inconclusive: 0.461 µM [activator, single point]
CCOC(=O)c1c(NC(=O)COc2cccc3c2CCN(Cc2ccc(F)cc2)C3=O)sc2c1CCC2	inconclusive: 13.7%	–
CCOc1ccc(-c2cccc(NC(=O)COc3ccc(Cl)cc3)c2)nn1	inconclusive: 123%	–
Nc1nc(SCC(=O)c2cc3ccccc3o2)n[nH]1	inconclusive: 5.02%	–
CC(NC(=O)Cn1cnc2c1c(=O)n(C)c(=O)n2C)c1ccccc1 (centres undefined)	inconclusive: -46.7% [at 0.0737 µM]	–
COc1ccc(-c2noc(CN(C)Cc3ccccc3)n2)c(OC)c1OC	inconclusive: -16.6%	–
CC(C)CC(=O)Nc1cccc(-c2nc3ccccc3o2)c1	inconclusive: -13.4%	–
CCOC(=O)C1(CCc2ccccc2)CCN(C(=O)CCc2cnccn2)CC1	inconclusive: 25.2%	–
CCOC(=O)c1c(NC(=O)C(C)Sc2c[nH]c3ccccc23)sc2c1CCC2 (centres undefined)	inconclusive: -7.93%	–
CCC(SC1=Nc2ccccc2C2=NC(CC(C)C)C(=O)N12)C(=O)Nc1ccc2c(c1)OCO2 (centres undefined)	–	inconclusive: 4.11 µM [falling, single point]
O=c1[nH]c(/C=C/c2ccc3c(c2)OCO3)c([N+](=O)[O-])c(=O)[nH]1	inconclusive: -24.9%	–
CCOC(=O)CCP(=O)(O)C(O)c1ccc(OC)cc1 (centres undefined)	inconclusive: 0.142%	–
COc1ccc(C2C=C(c3ccc(C)c(C)c3)Nc3ncnn32)c(OC)c1OC (centres undefined)	–	inconclusive: 29.1 µM [falling, partial curve, poor fit]
CN(C)c1ccc(/C=C(\NC(=O)c2ccccc2)C(=O)NCc2cccnc2)cc1	inconclusive: 175%	–
C#CCOCCOCCOCCNc1nc(N2CCN(C(=O)Cn3cc(CCCN=C(N)N)nn3)CC2)nc(N2CCN(C(=O)[C@H](CCCCN)n3cc(CCCC)nn3)CC2)n1	inconclusive: -3.76%	–
CC(=O)Nc1ccc(SCC(=O)OCC(=O)NC(=O)NC2CCCC2)cc1	inconclusive: -22.4%	–
Cc1nn(CC(=O)Nc2cccc(C(F)(F)F)c2)c(=O)c2cccn12	–	inconclusive: 29.1 µM [falling, single point]
CCC(=O)c1ccc(OCC(O)CN2CCc3ccccc3C2)cc1 (centres undefined)	inconclusive: -3.09%	–
